Experimental data taken from patent US20260063641A1, “COMPOSITIONS AND METHODS FOR LABELING AND DETECTING BINDING PARTNERS” (UNIVERSITY OF UTAH RESEARCH FOUNDATION, priority 2022, published 2026).
At least one structure is not confirmed: it was looked up by name or label, or the drawing left a doubt.

Target: T1, MEK1:trametinib:KSR1 complex (Homo sapiens, UniProt Q02750)
T1 construct: Immunoblot analysis of MEK1 and KSR1 following treatment of HEK293 cells; host or cells: HEK293 transiently transfected with the BioTAC plasmid
Experiment: BioTAC detection of molecular glue complex by immunoblot of MEK1 and KSR1
Assay type: cell-based
Conditions: against 1 μM Cpd2, 4 hr
Experimental: Bifunctional trametinib analogue JWJ-01-280/Cpd2 was synthesized, with a linker attachment informed by a reported trametinib-derived BRET probe named Tram-bo (FIG. 3B). […] The ability of the BioTAC system to detect both known interactors of trametinib was evaluated by Western blot, as described above.
0.6 million HEK293 cells were plated into wells containing 1 mL of complete media (DMEM, 10% FBS, 1% pen/strep) and incubated overnight. Cells were transiently transfected with 100 μL of OptiMEM media containing 1 μg of BioTAC plasmid and 3 μL of TransIT-2020 transfection reagent (Mirus, MIR5400) for 24 hr. Following a media change, cells were pre-treated with parental molecules or DMSO for 10 min, then treated with bifunctional compound for 10 min, and finally labeled in 100 μM biotin for the indicated time. Cells were washed twice with DPBS then harvested into 1.5 mL tubes. […] Protein concentration was determined by BCA assay (Thermo, 23225), then 100 ug protein was rotated overnight at 4° C. with 8 μL of streptavidin magnetic beads (Thermo, 88817) that had been prewashed twice in RIPA lysis buffer. […]

SMILES: CC(=O)Nc1cccc(-n2c(=O)n(C3CC3)c(=O)c3c(Nc4ccc(I)cc4F)n(C)c(=O)c(C)c32)c1 [trametinib, reference compound]
- competition of KSR1 and MEK1 enrichment by free parent drug: dose-dependent competition
